This is an account of results in patent publication US20210047410A1.

No constants are given. Whether binding was seen depends on the method and setting. Some binding calls cover weakened binding; strength is not graded here.

Assay [1] deals with WT (M1) hCTLA-4-Fc (human). Nature of the assay: ELISA: Fc proteins coated at 1 µg/ml, biotinylated hB7-1-Fc varied, streptavidin-HRP. (In general: ELISA stands for enzyme-linked immunosorbent assay.)
Assay [2] deals with WT (M1) hCTLA-4-Fc (human). Nature of the assay: ELISA; hCTLA-4-Fc protein coated at 1 µg/ml, streptavidin-HRP.

As for “human B7-1-Fc (from UniProt P33681 35-242) (Fc fusion)”, the binding result in assay [1] and in assay [2] was “binds” in each case.
